“Also recorded” adds a separate entry of the source.
How the values were obtained:
[1] = Odor, blind test involving three persons and safety data sheets; settings: blind test involving three persons
[2] = safety data sheet (Acros Organics; TCI Europe NV); cited from earlier work

SMILES	odor [1]	odor as described in safety data sheet [2]
COC(OC)c1ccccc1 [Benzaldehyde dimethyl acetal, reference compound]	pungent odor	strong note, metallic, almond
COc1ccc(C(OC)OC)cc1 [p-Anisaldehyde dimethyl acetal]	mild odor	pleasant odor; also recorded: floral

From patent US9585382B2, “Composition comprising a pesticide and an acetal solvent” (priority 2011, dated 2017)
